Measurements: PubChem BioAssay AID2685 (National Center for Advancing Translational Sciences (NCATS), 2010)
The list shows a part of the results. These are further read-outs of the screen, such as a control signal, another cell line or another target. No call is given for them. Most of these compounds were active or inconclusive in the main read-out, so they are no random draw. Potencies come from curve fits of mixed quality, noted in brackets.

Assay: qHTS Assay for Lipid Storage Modulators in Drosophila S3 Cells;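 as to cell number change: cells counted by Cell Tracker Red CMTPX staining in the red channel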
Details: BODIPY lipid droplet fluorescence, 18-24 h; for cell number change: measured here: cell count max response, cells fed with added oleic acid
Outline: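 Drosophila S3 cells loaded with oleic acid (400 uM, as added) and compounds at several concentrations; lipid droplets imaged by 488-nm laser-scanning cytometry, 500–530 nm intensity and object ratio to cell channel. Percent activity normalized to 20 uM Triacsin C.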

[1] = measured here: cell number channel AC50, cells fed with added oleic acid
[2] = measured here: lipid fluorescence (Fed channel) AC50, cells fed with added oleic acid

| Compound | AC50 [1] | cell number change | AC50 [2] |
| --- | --- | --- | --- |
| COc1ccc(C(=O)N(CN2CCCC2=O)c2ccccc2OC)cc1OC | 4.11 µM [rising, partial curve, poor fit] |  |  |
| Cc1ccc(NC(=O)C(C)NS(=O)(=O)c2ccc(F)cc2)cc1C (stereo unspecified) |  | 51.6% |  |
| O=C(CSc1nnc(Nc2ccccc2)s1)NC1CC1 |  | -4.01% | 23.1 µM [rising, single point] |
| CN(C(=O)c1ccc2nc(N)sc2c1)c1ccccc1 |  | 13% | 6.51 µM [rising, single point] |
| CNC(=S)N/N=C/c1ccc(N2CCOCC2)s1 | 29.1 µM [rising, single point] | 51.6% | 6.51 µM [falling, single point] |
| CSc1sc2ccccc2[n+]1CCCS(=O)(=O)[O-] | 0.92 µM [falling, full curve, poor fit] | -5.13% | 0.651 µM [falling, full curve] |
| O=C(CSc1nc2ccccc2o1)NCCOc1ccccc1 | 4.61 µM [falling, single point] | -15.7% | 18.4 µM [falling, partial curve] |
| Cc1ccccc1OCC(=O)Nc1ccc(NC(=O)c2ccco2)cc1 |  | 4.77% | 0.0058 µM [rising, full curve, poor fit] |
| COC(=O)c1c(F)c(F)c(NCCO)c(F)c1F |  | -2.17% | 0.326 µM [rising, full curve, poor fit] |
| CCOC(=O)c1ccc(S(=O)(=O)N2CCC(N3CCCCC3)CC2)cc1 |  | 6.63% | 14.6 µM [falling, partial curve, poor fit] |
| O=C1N(Cc2cccc(Cl)c2)C[C@@H]2C[C@@H](c3ccc4nonc4c3)N3CCC[C@@]123 | 14.6 µM [falling, partial curve] | -34.4% | 6.51 µM [falling, partial curve] |
| COc1ccc(CN(C)CC(=O)Nc2cc3oc4ccccc4c3cc2OC)c(OC)c1 |  | -7.37% | 0.731 µM [rising, single point] |
| O=C(/C=C/c1ccc(Cl)cc1Cl)NCc1ccncc1 |  | -6.47% | 0.58 µM [rising, single point] |
| CC1=CC=CC2=NC(=O)CC(C)(C(=O)N(CC(=O)NC(C)C)C3CCCC3)N12 (stereo unspecified) | 11.6 µM [falling, partial curve, poor fit] | -34.6% | 29.1 µM [falling, single point] |
| Cc1ccc(-n2nc3c(=O)n(C(C)C(=O)NCCc4cccs4)nc(C)c3c2C)cc1 (stereo unspecified) |  | -19.4% |  |
| CC(=O)O[C@]1(C(C)=O)CC[C@H]2[C@@H]3C=C(Cl)C4=CC(=O)[C@@H]5C[C@@H]5[C@]4(C)[C@H]3CC[C@@]21C | 29.1 µM [falling, single point] | -38.8% |  |
| COc1cc(/C=C/C(=O)O)cc2c1OCCO2 |  | -3.38% | 0.731 µM [falling, full curve] |
| COC(=O)c1cc2sccc2n1Cc1ccc(C)cc1 |  | -26.5% | 32.6 µM [falling, single point] |
| COc1ccc(-c2csc(NC(=O)c3ccccc3F)n2)cc1 | 1.46 µM [rising, partial curve, poor fit] | 13.1% |  |

| Compound | AC50 [1] | cell number change | AC50 [2] |
| --- | --- | --- | --- |
| CCOC(=O)C(C)n1cnc2c(nnn2-c2cccc(Cl)c2)c1=O (stereo unspecified) |  | -1.71% | 20.6 µM [rising, single point] |
| CCOc1ccc(S(=O)(=O)NC(=O)c2ccccc2)cc1 |  | 27.9% | 0.00461 µM [rising, full curve, poor fit] |
| Cc1ccc(OCc2ccc(C(=O)N3CCOCC3)cc2)cc1C | 29.1 µM [falling, single point] | -32.6% |  |
| CCOc1ccc(C(C)=O)cc1COC(=O)c1ccc2c(c1)NC(=O)CS2 |  | 1.66% | 6.51 µM [rising, single point] |
| CC(C)Cn1c(Cc2ccccc2)n[nH]c1=S |  | 20.4% |  |
| CCCn1ncc(CN2CCC(n3nccc3NC(=O)c3ccccc3OC)CC2)c1C |  | 2.83% |  |
| COc1ccc(CC(=O)Nc2ncc([N+](=O)[O-])s2)cc1OC |  | 9.22% | 0.731 µM [rising, full curve, poor fit] |
| COc1cc(OC)nc(NC(=O)COC(=O)c2cccc(Cl)c2)n1 |  | 26.8% |  |
| COc1ccc(NC(=O)c2nn(C)c(=O)c3ccccc23)cc1S(=O)(=O)Nc1ccccc1Cl | 2.31 µM [rising, full curve] | 125% | 3.66 µM [rising, partial curve] |
| O=C(c1cccc(S(=O)(=O)N2CCOCC2)c1)N(Cc1nnc(-c2ccccc2Cl)o1)C1CC1 | 16.4 µM [falling, single point] | -99.1% | 8.2 µM [falling, partial curve] |
| COC(=O)c1cccc(NC(=O)c2ccc(S(=O)(=O)N3CCN(C)CC3)cc2)c1 |  |  | 1.84 µM [rising, partial curve, poor fit] |
| Cc1ccccc1C(=O)NC[C@@H]1CCCN2CCCC[C@H]12 |  | 21.6% | 2.91 µM [rising, single point] |
| Cc1cc(C)nc(NS(=O)(=O)c2ccc(N/C=C/C(=O)c3ccc(Cl)cc3)cc2)n1 | 29.1 µM [falling, single point] | -56.7% | 16.4 µM [falling, single point] |
| NC(=O)COC(=O)c1ccc(S(=O)(=O)NCc2ccco2)cc1 | 0.0651 µM [falling, partial curve, poor fit] | 48% |  |
| CN1CCN(c2ccccc2NC(=O)c2ccc(-c3cccc([N+](=O)[O-])c3)o2)CC1 |  | -8.99% | 32.6 µM [falling, single point] |
| CC(=O)Nc1ccc(Nc2nc(-c3sc(C)nc3C)cs2)cc1 | 0.326 µM [falling, full curve] | -37% | 29.1 µM [falling, single point] |
| Cn1c(SCc2ccc(C#N)cc2)nnc1-c1cccc(Cl)c1 | 2.06 µM [rising, single point] | 3.2% |  |
| COC(=O)C1CCN(C(=O)COC(=O)c2oc3ccccc3c2C)CC1 | 13 µM [rising, single point] | 33% | 18.4 µM [rising, partial curve, poor fit] |
| CC(=O)c1ccc(NS(=O)(=O)c2ccc(C(C)(C)C)cc2)cc1 |  | -19.3% | 25.9 µM [falling, single point] |

5 neighbouring compounds out of the list so far, for reference:

| Compound | AC50 [1] | cell number change | AC50 [2] |
| --- | --- | --- | --- |
| COc1ccc(CC(=O)Nc2ncc([N+](=O)[O-])s2)cc1OC |  | 9.22% | 0.731 µM [rising, full curve, poor fit] |
| COc1cc(OC)nc(NC(=O)COC(=O)c2cccc(Cl)c2)n1 |  | 26.8% |  |
| COc1ccc(NC(=O)c2nn(C)c(=O)c3ccccc23)cc1S(=O)(=O)Nc1ccccc1Cl | 2.31 µM [rising, full curve] | 125% | 3.66 µM [rising, partial curve] |
| O=C(c1cccc(S(=O)(=O)N2CCOCC2)c1)N(Cc1nnc(-c2ccccc2Cl)o1)C1CC1 | 16.4 µM [falling, single point] | -99.1% | 8.2 µM [falling, partial curve] |
| COC(=O)c1cccc(NC(=O)c2ccc(S(=O)(=O)N3CCN(C)CC3)cc2)c1 |  |  | 1.84 µM [rising, partial curve, poor fit] |

(listing goes on)

| Compound | AC50 [1] | cell number change | AC50 [2] |
| --- | --- | --- | --- |
| O=C(CSc1ccc2nnc(-c3cccnc3)n2n1)NCc1ccc2c(c1)OCO2 | 1.03 µM [rising, partial curve] |  | 0.82 µM [rising, full curve] |
| C=CCc1ccccc1Oc1cc(OC)nc(N)n1 |  | 3.34% | 2.59 µM [rising, full curve] |
| COc1ccc(NC(=O)COc2nsnc2N2CCCCC2)cc1 |  | -2.18% | 2.59 µM [rising, partial curve] |
| COc1ccc(C(=O)NCCc2nnc3ccc(SCC(=O)Nc4ccccc4F)nn23)cc1 |  | -13% |  |
| Cc1cccc(NC(=O)c2nc[nH]c2C(=O)N[C@@H](CC(C)C)C(=O)OC(C)(C)C)c1 |  | -1.71% |  |
| CC1CCN(S(=O)(=O)c2ccc3c(c2)NC(=O)CS3)CC1 | 0.00651 µM [rising, full curve, poor fit] | 7.34% |  |
| CCOc1ccc(S(=O)(=O)c2c[nH]c3ccc(C)cc3c2=O)cc1 |  | 25.2% | 16.4 µM [rising, partial curve, poor fit] |
| CC(OC(=O)CCCc1nc2ccccc2s1)C(N)=O (stereo unspecified) |  |  | 0.82 µM [falling, full curve, poor fit] |
| CNC(=S)N(CCCn1ccnc1)Cc1c(F)cccc1Cl |  |  | 4.61 µM [falling, single point] |
| CC(=O)c1cnc(Nc2cccc(Cl)c2Cl)s1 |  | 5.7% | 0.731 µM [rising, single point] |
| CCCN(C(=O)COC(=O)COc1c(C)cccc1C)c1c(N)n(Cc2ccccc2)c(=O)[nH]c1=O | 14.6 µM [falling, single point] | -37.5% | 20.6 µM [falling, single point] |
| COc1ccc(-c2noc(-c3cccc(Cl)c3)n2)cc1OC | 29.1 µM [rising, single point] | 38.9% | 2.31 µM [rising, single point] |
| CSc1nsc(SC)c1NC(=O)OCCc1ccccn1 | 5.17 µM [falling, single point] | -17.6% | 4.11 µM [falling, single point] |
| COc1ccc(N2CC(O)=C(c3n(C)c4ccccc4[n+]3C)C2=N)cc1 | 29.1 µM [falling, single point] | -53.9% | 23.1 µM [falling, single point] |
| O=C(NCc1ccccc1)C(c1ccc(O)cc1)N(C(=O)c1cnccn1)c1ccccc1 (stereo unspecified) |  | 18% | 29.1 µM [rising, single point] |
| CCc1cccc2c(C#N)cn(CC(=O)NCCOC)c12 | 0.092 µM [rising, full curve, poor fit] |  |  |
| CCc1ccc(C2=NN(S(C)(=O)=O)C(c3cccs3)C2)cc1 (stereo unspecified) | 18.4 µM [rising, partial curve] | 536% | 29.1 µM [rising, single point] |
| COc1cc(CNC2CCCC2)cc(Br)c1OCC(=O)Nc1ccccc1C |  | 19.7% |  |
| CC(C)[C@H](NC(=O)[C@H]1N2C(=O)c3ccccc3C2SC1(C)C)C(=O)NCc1ccco1 (stereo partly specified) |  | -9.44% | 18.4 µM [falling, single point] |
